Common to all, as to experiment: co-IP
The target in assay [1] is T1, human MCIDAS (HA-tagged) (human) (UniProt D6RGH6).
T1 sequence: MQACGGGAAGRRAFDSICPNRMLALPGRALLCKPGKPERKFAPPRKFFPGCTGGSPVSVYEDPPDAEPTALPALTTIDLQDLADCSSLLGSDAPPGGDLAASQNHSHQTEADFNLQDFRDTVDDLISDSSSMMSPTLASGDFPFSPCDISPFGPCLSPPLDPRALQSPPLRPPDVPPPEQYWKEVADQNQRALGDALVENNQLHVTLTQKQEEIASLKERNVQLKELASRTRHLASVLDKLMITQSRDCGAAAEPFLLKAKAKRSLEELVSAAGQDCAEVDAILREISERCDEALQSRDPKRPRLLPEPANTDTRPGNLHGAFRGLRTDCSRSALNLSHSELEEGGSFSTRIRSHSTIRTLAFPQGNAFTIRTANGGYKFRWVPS

Protein sequences, listed by entry. Tags and fused reporters are not part of them.
UniProt Q15329, whole entry: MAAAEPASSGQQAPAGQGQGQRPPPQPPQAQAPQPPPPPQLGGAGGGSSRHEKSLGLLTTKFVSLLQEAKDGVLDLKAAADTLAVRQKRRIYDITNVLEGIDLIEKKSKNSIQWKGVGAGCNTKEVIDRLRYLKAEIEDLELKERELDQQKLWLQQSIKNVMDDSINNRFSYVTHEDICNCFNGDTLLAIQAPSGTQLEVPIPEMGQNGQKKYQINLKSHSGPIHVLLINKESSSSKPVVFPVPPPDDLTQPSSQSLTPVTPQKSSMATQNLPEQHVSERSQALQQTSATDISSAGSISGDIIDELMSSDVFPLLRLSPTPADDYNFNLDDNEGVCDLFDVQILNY
UniProt Q14186, whole entry: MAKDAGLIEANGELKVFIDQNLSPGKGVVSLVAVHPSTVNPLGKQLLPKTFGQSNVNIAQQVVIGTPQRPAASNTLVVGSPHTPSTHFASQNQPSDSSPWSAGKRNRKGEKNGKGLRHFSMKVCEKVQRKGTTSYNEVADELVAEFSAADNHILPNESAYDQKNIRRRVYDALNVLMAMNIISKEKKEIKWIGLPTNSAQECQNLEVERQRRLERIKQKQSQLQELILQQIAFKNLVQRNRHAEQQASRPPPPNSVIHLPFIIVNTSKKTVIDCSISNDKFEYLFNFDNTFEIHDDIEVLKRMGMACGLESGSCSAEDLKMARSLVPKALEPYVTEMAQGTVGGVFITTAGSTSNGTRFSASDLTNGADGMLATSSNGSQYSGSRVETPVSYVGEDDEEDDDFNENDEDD
UniProt Q16254, whole entry: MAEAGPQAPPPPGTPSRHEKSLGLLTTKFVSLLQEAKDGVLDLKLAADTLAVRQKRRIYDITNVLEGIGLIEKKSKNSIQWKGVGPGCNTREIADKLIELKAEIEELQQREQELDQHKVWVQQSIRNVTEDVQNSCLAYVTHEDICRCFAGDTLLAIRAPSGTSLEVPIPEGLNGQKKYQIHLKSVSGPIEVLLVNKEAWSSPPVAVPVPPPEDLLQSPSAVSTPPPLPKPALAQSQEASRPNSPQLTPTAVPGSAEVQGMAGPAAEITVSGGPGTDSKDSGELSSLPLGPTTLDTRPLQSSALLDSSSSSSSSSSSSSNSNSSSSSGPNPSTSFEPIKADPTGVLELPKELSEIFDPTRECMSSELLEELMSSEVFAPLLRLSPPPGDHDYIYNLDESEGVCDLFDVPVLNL
UniProt Q61502, whole entry: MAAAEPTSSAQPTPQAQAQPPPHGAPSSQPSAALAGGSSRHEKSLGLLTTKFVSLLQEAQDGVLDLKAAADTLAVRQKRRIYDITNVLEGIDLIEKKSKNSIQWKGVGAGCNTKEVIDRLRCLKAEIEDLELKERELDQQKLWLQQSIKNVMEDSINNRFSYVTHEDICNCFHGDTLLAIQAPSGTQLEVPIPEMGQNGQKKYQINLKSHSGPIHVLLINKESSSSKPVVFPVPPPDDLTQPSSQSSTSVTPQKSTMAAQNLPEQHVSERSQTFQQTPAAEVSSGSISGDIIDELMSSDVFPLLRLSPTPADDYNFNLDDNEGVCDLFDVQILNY
UniProt Q8R0K9, whole entry: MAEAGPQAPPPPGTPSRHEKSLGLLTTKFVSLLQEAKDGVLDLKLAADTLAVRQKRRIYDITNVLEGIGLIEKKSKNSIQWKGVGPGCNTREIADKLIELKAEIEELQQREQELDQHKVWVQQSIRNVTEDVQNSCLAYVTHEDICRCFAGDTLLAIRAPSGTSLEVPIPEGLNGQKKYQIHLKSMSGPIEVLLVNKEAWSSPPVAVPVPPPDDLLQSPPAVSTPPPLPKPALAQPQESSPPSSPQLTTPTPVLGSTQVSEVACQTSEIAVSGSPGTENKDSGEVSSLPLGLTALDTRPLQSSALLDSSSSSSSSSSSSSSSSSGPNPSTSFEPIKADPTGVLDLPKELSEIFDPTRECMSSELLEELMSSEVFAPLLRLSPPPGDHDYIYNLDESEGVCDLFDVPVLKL

Assay [2] concerns the target T2, human GMNC (HA-tagged) (human) (UniProt A6NCL1).
T2 sequence: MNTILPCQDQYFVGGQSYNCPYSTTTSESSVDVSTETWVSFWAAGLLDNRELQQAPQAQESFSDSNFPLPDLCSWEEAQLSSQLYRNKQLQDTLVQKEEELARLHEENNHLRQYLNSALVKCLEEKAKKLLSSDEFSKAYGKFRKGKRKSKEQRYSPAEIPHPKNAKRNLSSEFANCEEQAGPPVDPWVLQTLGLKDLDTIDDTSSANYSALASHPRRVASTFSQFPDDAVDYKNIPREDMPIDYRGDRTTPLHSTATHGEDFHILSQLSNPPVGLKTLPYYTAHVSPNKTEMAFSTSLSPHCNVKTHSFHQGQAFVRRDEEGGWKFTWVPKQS

Assay [3] deals with T3, mouse MCIDAS (HA-tagged) (mouse) (UniProt Q3UZ45).
T3 sequence: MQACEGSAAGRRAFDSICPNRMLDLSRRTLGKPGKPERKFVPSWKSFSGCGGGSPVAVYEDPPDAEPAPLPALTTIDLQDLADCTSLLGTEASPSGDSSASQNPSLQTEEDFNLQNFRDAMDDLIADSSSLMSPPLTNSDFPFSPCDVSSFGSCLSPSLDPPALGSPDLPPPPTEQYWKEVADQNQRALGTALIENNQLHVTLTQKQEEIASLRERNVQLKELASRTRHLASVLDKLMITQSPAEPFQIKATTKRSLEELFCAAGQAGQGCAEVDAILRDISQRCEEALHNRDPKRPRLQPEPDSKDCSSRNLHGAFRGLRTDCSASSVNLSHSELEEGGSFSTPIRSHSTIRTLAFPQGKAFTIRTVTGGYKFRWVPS

Assay [4] concerns the target T4, mouse GMNC (HA-tagged) (mouse) (UniProt Q3URY2).
T4 sequence: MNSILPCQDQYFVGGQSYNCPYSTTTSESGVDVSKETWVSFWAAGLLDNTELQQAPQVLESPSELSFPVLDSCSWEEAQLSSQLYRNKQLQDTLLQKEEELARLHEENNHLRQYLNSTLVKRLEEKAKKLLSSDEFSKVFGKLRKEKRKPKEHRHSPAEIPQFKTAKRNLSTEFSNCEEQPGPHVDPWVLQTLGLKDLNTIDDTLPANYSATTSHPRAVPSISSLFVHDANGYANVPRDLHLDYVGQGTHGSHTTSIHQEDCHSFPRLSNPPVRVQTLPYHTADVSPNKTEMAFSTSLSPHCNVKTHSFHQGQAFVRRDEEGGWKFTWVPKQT

Assay [5] concerns the target T4, mouse GMNC (HA-tagged) (mouse). The source holds these as a separate data set.

Where two headings read alike, the source gives them in different places. Results are given in words; binding and its absence hold for the method and conditions named. Binding seen in cells or lysates may run through a third protein. Some binding calls cover weakened binding; strength is not graded here. Tags and fused reporters may be left off the sequences shown.

As for “human E2F5 (6x Myc-tagged) (from UniProt Q15329 1-346)”, the binding entry in assay [1] and in assay [2] was “binds” throughout.

Consider “human DP1 (6x Myc-tagged) (from UniProt Q14186 1-410)”, for which the binding result in assay [2] was “binds”.

For the molecule “human E2F4 (6x Myc-tagged) (from UniProt Q16254 1-413)”, the binding result in assay [1] is given as “binds”.

Consider “mouse E2F5 (6x Myc-tagged) (from UniProt Q61502 1-335)”, for which the binding result in assay [3] and in assay [4] was “binds” each time.

As for “mouse E2F4 (6x Myc-tagged) (from UniProt Q8R0K9 1-410)”, the binding result in assay [3] was “binds”; in assay [4], “binds weakly”.

B1: mouse DP1 (6x Myc-tagged) (protein, UniProt Q08639 1-410)
chain: MAKDASLIEANGELKVFIDQNLSPGKGVVSLVAVHPSTVNTLGKQLLPKTFGQSNVNITQQVVIGTPQRPAASNTIVVGSPHTPNTHFVSQNQTSDSSPWSAGKRNRKGEKNGKGLRHFSMKVCEKVQRKGTTSYNEVADELVAEFSAADNHILPNESAYDQKNIRRRVYDALNVLMAMNIISKEKKEIKWIGLPTNSAQECQNLEVERQRRLERIKQKQSQLQELILQQIAFKNLVQRNRQAEQQARRPPPPNSVIHLPFIIVNTSRKTVIDCSISNDKFEYLFNFDNTFEIHDDIEVLKRMGMACGLESGNCSAEDLKVARSLVPKALEPYVTEMAQGSIGGVFVTTTGSTSNGTRLSASDLSNGADGMLATSSNGSQYSGSRVETPVSYVGEDDDDDDDFNENDEED
In the case of B1, in assay [5], the binding result is listed as “binds”.

The values above are taken from publication doi:10.1101/439703.
